No constants are given. Whether binding was seen depends on the method and setting. Binding calls can cover weak binding; strength is not graded here. Sequences can lack the tags named with a protein.
What was measured:
[1] = molecular target: TNFR2 immobilized on the SPR sensor chip (channel 1) (Homo sapiens (Human)); assay: SPR (SensiQ Pioneer, FastStep injection), TNFR2 immobilized
[2] = molecular target: TNFR1 immobilized on the SPR sensor chip (channel 3) (Homo sapiens (Human)); assay: SPR (SensiQ Pioneer, FastStep injection), TNFR1 immobilized

B1: Atsttrin-α1 (Antagonist of TNF/TNFR Signaling via Targeting to TNF Receptors-α1), recombinant (designed binder)
chain: GILPQASCCEDRVHCCPHGAFCDLVHTRCITPTGTHPLAKKLPAQRTNRAVALSSSSKENATTDLLTKLPAHTVGDVKCDMEVSCPDGYTCCRLQSGAWCEQGPHQVPWMEKAPAHLSLPDPQALKRDVPCDNVSSCPSSDTCCQLTSGEWGCCPIP
[1]
  binding: binds
[2]
  binding: binds
